The supplement of paper PMC7238544
Where a name gives a salt, the structure may show the parent alone. ± gives the standard deviation of the averaged measurements. The list shows a part of the results. The data scatter; read single values as rough.

Columns and labels:
hAMSC donor 1 [1] = assay: Hoechst total cell count ratio vs vehicle control; higher = more cells (less toxicity)
hAMSC donor 2 [2] = assay: as above
hAMSC donor 1 [3] = assay: transgenic luciferase activity (RLU/mg protein) fold change vs vehicle control (ratio); higher = more transgene expression
hAMSC donor 2 [4] = assay: as above
hAMSC donor 1 [5] = assay: transfection efficiency (EGFP+ cells / Hoechst count) fold change vs vehicle control (ratio); hAMSC are human adipose-derived mesenchymal stem cells given an EGFP-luciferase plasmid by lipofection; higher = enhanced transfection
hAMSC donor 2 [6] = assay: as above
[7] = priming compound concentration 0.2 µM
[8] = priming compound concentration 1.7 µM
[9] = priming compound concentration 13 µM

| SMILES | Hoechst total cell count ratio (hAMSC donor 1 [1]; [7]) | Hoechst total cell count ratio (hAMSC donor 1 [1]; [8]) | Hoechst total cell count ratio (hAMSC donor 1 [1]; [9]) | Hoechst total cell count ratio (hAMSC donor 2 [2]; [7]) | Hoechst total cell count ratio (hAMSC donor 2 [2]; [8]) | Hoechst total cell count ratio (hAMSC donor 2 [2]; [9]) | transgenic luciferase activity (hAMSC donor 1 [3]; [7]) | transgenic luciferase activity (hAMSC donor 1 [3]; [8]) | transgenic luciferase activity (hAMSC donor 2 [4]; [7]) | transgenic luciferase activity (hAMSC donor 2 [4]; [8]) | transgenic luciferase activity (hAMSC donor 2 [4]; [9]) | transfection efficiency (hAMSC donor 1 [5]; [7]) | transfection efficiency (hAMSC donor 1 [5]; [8]) | transfection efficiency (hAMSC donor 1 [5]; [9]) | transfection efficiency (hAMSC donor 2 [6]; [7]) | transfection efficiency (hAMSC donor 2 [6]; [8]) | transfection efficiency (hAMSC donor 2 [6]; [9]) | transgenic luciferase activity (hAMSC donor 1 [3]; [9]) |
| --- | --- | --- | --- | --- | --- | --- | --- | --- | --- | --- | --- | --- | --- | --- | --- | --- | --- | --- |
| COc1cc(-c2ccc(=O)[nH]n2)ccc1OC(F)F [Zardaverine] | 1.12 ± 0.028 | 1.24 ± 0.1 | 1.13 ± 0.11 | 1.09 ± 0.14 | 1.52 ± 0.15 | 1.41 ± 0.27 | 0.698 ± 0.28 | 1.19 ± 0.36 | 0.822 ± 0.067 | 0.695 ± 0.23 | 0.588 ± 0.11 | 1.43 ± 0.28 | 1.88 ± 0.22 | 0.754 ± 0.16 | 1.05 ± 0.2 | 0.933 ± 0.14 | 0.987 ± 0.28 | – |
| C[C@@H]1C[C@H]2[C@@H]3CCC4=CC(=O)C=C[C@]4(C)[C@@]3(F)[C@@H](O)C[C@]2(C)[C@H]1C(=O)CO [Desoximetasone] | 1.52 ± 0.17 | 1.24 ± 0.02 | 1.33 ± 0.19 | 1.12 ± 0.09 | 1.39 ± 0.02 | 1.12 ± 0.19 | – | 8.69 ± 0.88 | 1.49 ± 0.57 | 4.77 ± 0.45 | 4.26 ± 1.3 | 1.39 ± 0.45 | 2.11 ± 0.14 | 3.49 ± 0.33 | 1.58 ± 0.23 | 1.78 ± 0.02 | 1.61 ± 0.41 | 7.22 ± 3.2 |
| Cc1ccnc2c1NC(=O)c1cccnc1N2C1CC1 [Nevirapine] | 1.34 ± 0.089 | 1.16 ± 0.16 | 1.29 ± 0.28 | 1.31 ± 0.11 | 1.05 ± 0.032 | 1.3 ± 0.17 | – | 1.16 ± 0.083 | 0.392 ± 0.16 | 0.705 ± 0.032 | 0.926 ± 0.23 | 0.984 ± 0.27 | 1.35 ± 0.22 | 1.53 ± 0.39 | 0.834 ± 0.055 | 0.942 ± 0.068 | 1.28 ± 0.059 | 1.06 ± 0.25 |
| CCOC(=O)C1=C(C)NC(C)=C(C(=O)OCC)C1c1ccccc1/C=C/C(=O)OC(C)(C)C [Lacidipine] | 1.59 ± 0.07 | 1.31 ± 0.13 | 1.2 ± 0.078 | 1.02 ± 0.082 | 1 ± 0.021 | 1.07 ± 0.067 | – | 0.934 ± 0.066 | 0.474 ± 0.11 | 0.858 ± 0.17 | 0.635 ± 0.23 | 1 ± 0.076 | 1.42 ± 0.17 | 1.16 ± 0.34 | 0.988 ± 0.14 | 1.312 ± 0.013 | 0.885 ± 0.15 | 0.174 ± 0.08 |
| O=C(O)c1cc(-c2ccc(F)cc2F)ccc1O [Diflunisal] | 1.26 ± 0.081 | 1.06 ± 0.064 | 1.47 ± 0.13 | 1.14 ± 0.067 | 1.22 ± 0.073 | 1.45 ± 0.078 | – | 1.12 ± 0.44 | 0.753 ± 0.077 | 0.504 ± 0.0086 | 0.494 ± 0.1 | 0.937 ± 0.22 | 1.24 ± 0.13 | 0.77 ± 0.29 | 0.936 ± 0.035 | 0.952 ± 0.29 | 0.84 ± 0.11 | 0.471 ± 0.14 |
| CCCNC(=O)NS(=O)(=O)c1ccc(Cl)cc1 [Chlorpropamide] | 1.12 ± 0.049 | 1.03 ± 0.18 | 1.32 ± 0.19 | 1.12 ± 0.061 | 1.26 ± 0.054 | 1.47 ± 0.22 | 0.645 ± 0.095 | 0.608 ± 0.46 | 0.929 ± 0.13 | 0.919 ± 0.025 | 0.478 ± 0.092 | 1.27 ± 0.35 | 2.04 ± 0.27 | 0.939 ± 0.35 | 1.21 ± 0.16 | 1.18 ± 0.085 | 0.91 ± 0.13 | – |
| CC(=O)OCC(=O)[C@@]1(O)CC[C@H]2[C@@H]3CCC4=CC(=O)C=C[C@]4(C)[C@H]3[C@@H](O)C[C@@]21C [Prednisolone acetate] | 1.43 ± 0.29 | 1.4 ± 0.047 | 1.33 ± 0.12 | 1.19 ± 0.017 | 1.17 ± 0.035 | 1.3 ± 0.14 | 1.57 ± 0.18 | 8.41 ± 4.2 | 1.1 ± 0.21 | 1.79 ± 0.63 | 2.51 ± 0.69 | 1.17 ± 0.37 | 0.963 ± 0.016 | 0.909 ± 0.13 | 1.35 ± 0.047 | 2.08 ± 0.14 | 1.8 ± 0.47 | – |
| C[C@H]1c2cccc(O)c2C(=O)C2=C(O)[C@]3(O)C(=O)C(C(N)=O)=C(O)[C@@H](N(C)C)[C@@H]3[C@@H](O)[C@@H]21 [Doxycycline] | 1.04 ± 0.08 | 0.971 ± 0.17 | 1.13 ± 0.039 | 1.28 ± 0.061 | 1.1 ± 0.061 | 1.45 ± 0.021 | – | 0.413 ± 0.15 | 1.08 ± 0.47 | 0.499 ± 0.099 | 0.483 ± 0.065 | 1.79 ± 0.97 | 1.31 ± 0.36 | 0.741 ± 0.24 | 1.11 ± 0.04 | 1.14 ± 0.075 | 0.825 ± 0.13 | 1.55 ± 0.46 |
| CCOC(=O)C1=C(COCCN)NC(C)=C(C(=O)OC)C1c1ccccc1Cl (stereo not drawn) [Amlodipine] | 1.48 ± 0.14 | 1.39 ± 0.051 | 1.47 ± 0.15 | 0.974 ± 0.14 | 0.983 ± 0.051 | 1.54 ± 0.2 | – | 0.633 ± 0.11 | 0.533 ± 0.085 | 0.723 ± 0.016 | 0.61 ± 0.11 | 0.931 ± 0.091 | 1.26 ± 0.29 | 0.773 ± 0.3 | 0.918 ± 0.056 | 1.17 ± 0.066 | 0.447 ± 0.076 | 0.221 ± 0.15 |
| NCc1ccc(S(N)(=O)=O)cc1 [Mafenide acetate] | 1.48 ± 0.048 | 1.23 ± 0.093 | 1.39 ± 0.25 | 1.13 ± 0.055 | 1.2 ± 0.027 | 1.23 ± 0.11 | – | 1.18 ± 0.47 | 0.681 ± 0.45 | 0.593 ± 0.064 | 0.656 ± 0.035 | 0.614 ± 0.18 | 0.983 ± 0.077 | 0.785 ± 0.059 | 0.948 ± 0.051 | 0.904 ± 0.048 | 1.08 ± 0.34 | 0.414 ± 0.35 |
| CC(C)(C)NC(=O)[C@@H]1C[C@@H]2CCCC[C@@H]2CN1C[C@@H](O)[C@H](Cc1ccccc1)NC(=O)[C@H](CC(N)=O)NC(=O)c1ccc2ccccc2n1 [Saquinavir mesylate] | 1.39 ± 0.053 | 1.23 ± 0.079 | 1.32 ± 0.13 | 1.12 ± 0.12 | 1.34 ± 0.091 | 1.15 ± 0.19 | – | 0.818 ± 0.22 | 0.549 ± 0.12 | 0.921 ± 0.11 | 1.01 ± 0.35 | 1.05 ± 0.29 | 1.32 ± 0.12 | 1.19 ± 0.083 | 0.881 ± 0.099 | 0.967 ± 0.051 | 1.12 ± 0.19 | 0.456 ± 0.37 |
| CN(C)CCOc1ccc(/C(=C(/CCCl)c2ccccc2)c2ccccc2)cc1 [Toremifene citrate] | 1.11 ± 0.085 | 1.23 ± 0.18 | 1.34 ± 0.043 | 1.1 ± 0.16 | 0.989 ± 0.14 | 1.31 ± 0.073 | – | 0.256 ± 0.033 | 1.24 ± 0.17 | 0.573 ± 0.15 | 0.485 ± 0.032 | 0.897 ± 0.013 | 1.17 ± 0.17 | 0.789 ± 0.19 | 1.05 ± 0.12 | 1.2 ± 0.22 | 0.742 ± 0.11 | 0.522 ± 0.16 |
| CC(=O)OCC(=O)[C@@]12OC(C)(C)O[C@@H]1C[C@H]1[C@@H]3C[C@H](F)C4=CC(=O)C=C[C@]4(C)[C@@]3(F)[C@@H](O)C[C@@]12C [Fluocinolone acetonide 21-acetate] | 1.05 ± 0.13 | 1.19 ± 0.06 | 1.16 ± 0.059 | 1.46 ± 0.31 | 0.934 ± 0.039 | 0.979 ± 0.16 | – | 2.8 ± 0.15 | 5 ± 1.3 | 4.5 ± 0.41 | 3.25 ± 0.44 | 1.61 ± 0.35 | 3.31 ± 0.71 | 2.11 ± 0.42 | 1.04 ± 0.43 | 2.3 ± 0.51 | 1.88 ± 0.2 | 11.3 ± 0.46 |
| COC(=O)[C@H](c1ccccc1Cl)N1CCc2sccc2C1 [Clopidogrel] | 1.37 ± 0.23 | 1.07 ± 0.058 | 1.24 ± 0.32 | 1.19 ± 0.15 | 1.17 ± 0.088 | 1.5 ± 0.092 | – | 1.46 ± 0.21 | 0.812 ± 0.18 | 0.585 ± 0.041 | 0.51 ± 0.17 | 0.733 ± 0.47 | 1.26 ± 0.46 | 1.21 ± 0.31 | 0.889 ± 0.11 | 1.03 ± 0.17 | 0.879 ± 0.089 | 1.04 ± 0.84 |

A second format for part of the listing above:
SMILES | Hoechst total cell count ratio (hAMSC donor 1 [1]; [7]) | Hoechst total cell count ratio (hAMSC donor 1 [1]; [8]) | Hoechst total cell count ratio (hAMSC donor 1 [1]; [9]) | Hoechst total cell count ratio (hAMSC donor 2 [2]; [7]) | Hoechst total cell count ratio (hAMSC donor 2 [2]; [8]) | Hoechst total cell count ratio (hAMSC donor 2 [2]; [9]) | transgenic luciferase activity (hAMSC donor 1 [3]; [7]) | transgenic luciferase activity (hAMSC donor 1 [3]; [8]) | transgenic luciferase activity (hAMSC donor 2 [4]; [7]) | transgenic luciferase activity (hAMSC donor 2 [4]; [8]) | transgenic luciferase activity (hAMSC donor 2 [4]; [9]) | transfection efficiency (hAMSC donor 1 [5]; [7]) | transfection efficiency (hAMSC donor 1 [5]; [8]) | transfection efficiency (hAMSC donor 1 [5]; [9]) | transfection efficiency (hAMSC donor 2 [6]; [7]) | transfection efficiency (hAMSC donor 2 [6]; [8]) | transfection efficiency (hAMSC donor 2 [6]; [9]) | transgenic luciferase activity (hAMSC donor 1 [3]; [9])
COc1cc(-c2ccc(=O)[nH]n2)ccc1OC(F)F [Zardaverine] | 1.12 ± 0.028 | 1.24 ± 0.1 | 1.13 ± 0.11 | 1.09 ± 0.14 | 1.52 ± 0.15 | 1.41 ± 0.27 | 0.698 ± 0.28 | 1.19 ± 0.36 | 0.822 ± 0.067 | 0.695 ± 0.23 | 0.588 ± 0.11 | 1.43 ± 0.28 | 1.88 ± 0.22 | 0.754 ± 0.16 | 1.05 ± 0.2 | 0.933 ± 0.14 | 0.987 ± 0.28 | –
NCc1ccc(S(N)(=O)=O)cc1 [Mafenide acetate] | 1.48 ± 0.048 | 1.23 ± 0.093 | 1.39 ± 0.25 | 1.13 ± 0.055 | 1.2 ± 0.027 | 1.23 ± 0.11 | – | 1.18 ± 0.47 | 0.681 ± 0.45 | 0.593 ± 0.064 | 0.656 ± 0.035 | 0.614 ± 0.18 | 0.983 ± 0.077 | 0.785 ± 0.059 | 0.948 ± 0.051 | 0.904 ± 0.048 | 1.08 ± 0.34 | 0.414 ± 0.35
